Cleaved PARP in drug-treated melanoma cells

Data from the primary screen of doi:10.1371/journal.pone.0140310, rounded.

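Human melanoma cells were exposed to two drugs together for 72 h in 1,536-well plates and read by automated microscopy after fixing and staining. The read-out is the fraction of cleaved-PARP-positive nuclei, in % of that fraction in the DMSO control; 200 means twice the control level of this apoptosis marker. Every drug was used at one fixed concentration, the higher of two screened. No replicate spread is given; individual values may be noisy. The marker varies much from line to line, for technical or biological reasons.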
This is part of the screen, not chosen by result.

Drugs:
tamatinib (2 µM): COc1cc(Nc2ncc(F)c(Nc3ccc4c(n3)NC(=O)C(C)(C)O4)n2)cc(OC)c1OC
AZD7762 (0.1 µM): NC(=O)Nc1cc(-c2cccc(F)c2)sc1C(=O)N[C@H]1CCCNC1
temozolomide (10 µM): Cn1nnc2c(C(N)=O)ncn2c1=O
pazopanib (2 µM): Cc1ccc(Nc2nccc(N(C)c3ccc4c(C)n(C)nc4c3)n2)cc1S(N)(=O)=O
perifosine (2 µM): CCCCCCCCCCCCCCCCCCOP(=O)([O-])OC1CC[N+](C)(C)CC1
darinaparsin (2 µM): C[As](C)SC[C@H](NC(=O)CC[C@H](N)C(=O)O)C(=O)NCC(=O)O
LFM-A13 (10 µM): C/C(O)=C(\C#N)C(=O)Nc1cc(Br)ccc1Br
fludarabine (1 µM): Nc1nc(F)nc2c1ncn2[C@@H]1O[C@H](CO)[C@@H](O)[C@@H]1O
L-779450 (1 µM): Oc1cc(-c2nc(-c3ccccc3)[nH]c2-c2ccncc2)ccc1Cl
MK-2206 (2 µM): NC1(c2ccc(-c3nc4ccn5c(=O)[nH]nc5c4cc3-c3ccccc3)cc2)CCC1
YM155 (0.002 µM): COCC[n+]1c2c(n(Cc3cnccn3)c1C)C(=O)c1ccccc1C2=O
palbociclib (0.2 µM): CC(=O)c1c(C)c2cnc(Nc3ccc(N4CCNCC4)cn3)nc2n(C2CCCC2)c1=O
ruxolitinib (5 µM): N#CC[C@H](C1CCCC1)n1cc(-c2ncnc3[nH]ccc23)cn1
SU6656 (2 µM): CN(C)S(=O)(=O)c1ccc2c(c1)/C(=C/c1cc3c([nH]1)CCCC3)C(=O)N2

With tamatinib + ruxolitinib the screen read SK-MEL-28: 145; UACC-62: 138; G-361: 203; UACC-257: 45.0.
With LFM-A13 + tamatinib the screen read SK-MEL-28: 125; UACC-62: 235; G-361: 60.6; UACC-257: 30.6.
With perifosine + AZD7762 the screen read SK-MEL-28: 180; UACC-62: 137; G-361: 149; UACC-257: 26.6.
With YM155 + darinaparsin the screen read SK-MEL-28: 596; UACC-62: 223; G-361: 92.3; UACC-257: 170.
With LFM-A13 + fludarabine the screen read SK-MEL-28: 1030; UACC-62: 273; G-361: 110; UACC-257: 4160.
With AZD7762 + tamatinib the screen read SK-MEL-28: 63.6; UACC-62: 124; G-361: 132; UACC-257: 88.0.
With darinaparsin + MK-2206 the screen read SK-MEL-28: 114; UACC-62: 337; G-361: 47.0; UACC-257: 135.
With LFM-A13 + darinaparsin the screen read SK-MEL-28: 129; UACC-62: 88.4; G-361: 80.9; UACC-257: 79.5.
With MK-2206 + L-779450 the screen read SK-MEL-28: 359; UACC-62: 403; G-361: 316; UACC-257: 57.8.
With temozolomide + L-779450 the screen read SK-MEL-28: 463; UACC-62: 424; G-361: 186; UACC-257: 66.5.
With MK-2206 + tamatinib the screen read SK-MEL-28: 98.0; UACC-62: 170; G-361: 30.9; UACC-257: 185.
With ruxolitinib + YM155 the screen read SK-MEL-28: 676; UACC-62: 347; G-361: 183; UACC-257: 1760.
With fludarabine + MK-2206 the screen read SK-MEL-28: 1160; UACC-62: 151; G-361: 119; UACC-257: 5840.
With L-779450 + tamatinib the screen read SK-MEL-28: 226; UACC-62: 374; G-361: 174; UACC-257: 45.4.
With AZD7762 + temozolomide the screen read SK-MEL-28: 151; UACC-62: 91.3; G-361: 59.4; UACC-257: 31.4.
With LFM-A13 + palbociclib the screen read SK-MEL-28: 148; UACC-62: 271; G-361: 102; UACC-257: 30.9.
With LFM-A13 + SU6656 the screen read SK-MEL-28: 142; UACC-62: 160; G-361: 193; UACC-257: 31.8.
With perifosine + MK-2206 the screen read SK-MEL-28: 30.1; UACC-62: 206; G-361: 52.0; UACC-257: 124.
With palbociclib + fludarabine the screen read SK-MEL-28: 1470; UACC-62: 184; G-361: 83.9; UACC-257: 5990.
With MK-2206 + pazopanib the screen read SK-MEL-28: 49.0; UACC-62: 253; G-361: 20.8; UACC-257: 32.5.
With temozolomide + YM155 the screen read SK-MEL-28: 485; UACC-62: 229; G-361: 156; UACC-257: 915.
With temozolomide + LFM-A13 the screen read SK-MEL-28: 714; UACC-62: 33.1; G-361: 117; UACC-257: 28.8.
With darinaparsin + temozolomide the screen read SK-MEL-28: 121; UACC-62: 188; G-361: 43.4; UACC-257: 69.8.
With SU6656 + AZD7762 the screen read SK-MEL-28: 596; UACC-62: 182; G-361: 57.4; UACC-257: 84.5.
With L-779450 + pazopanib the screen read SK-MEL-28: 68.9; UACC-62: 347; G-361: 269; UACC-257: 30.0.
With darinaparsin + tamatinib the screen read SK-MEL-28: 95.3; UACC-62: 102; G-361: 128; UACC-257: 84.7.
With SU6656 + palbociclib the screen read SK-MEL-28: 46.8; UACC-62: 71.7; G-361: 323; UACC-257: 40.4.
With fludarabine + AZD7762 the screen read SK-MEL-28: 1620; UACC-62: 138; G-361: 414; UACC-257: 2170.
With ruxolitinib + fludarabine the screen read SK-MEL-28: 1300; UACC-62: 259; G-361: 182; UACC-257: 3470.
With tamatinib + perifosine the screen read SK-MEL-28: 111; UACC-62: 160; G-361: 210; UACC-257: 147.
With L-779450 + palbociclib the screen read SK-MEL-28: 101; UACC-62: 483; G-361: 37.6; UACC-257: 63.6.
With palbociclib + ruxolitinib the screen read SK-MEL-28: 37.5; UACC-62: 277; G-361: 136; UACC-257: 50.5.
With darinaparsin + perifosine the screen read SK-MEL-28: 78.6; UACC-62: 177; G-361: 61.1; UACC-257: 43.8.
With ruxolitinib + pazopanib the screen read SK-MEL-28: 120; UACC-62: 126; G-361: 233; UACC-257: 51.1.
With pazopanib + SU6656 the screen read SK-MEL-28: 85.8; UACC-62: 121; G-361: 171; UACC-257: 189.